Taken from: PubChem BioAssay AID1259308 (NCATS, 2017)
This is a random part of about 59,000 reagents tested. About 1,510 of all reagents (2.6%) were called active. 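Calls use total luciferase alone and ignore viability, so some active siRNAs may act by altering cell number.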 The numbers tell different reagents against one gene apart.

- Test: 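Genes whose loss raises luciferase production in HEK293 cells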 (primary screen)
- System: human HEK293 embryonic kidney cells stably expressing firefly luciferase (HEK-CMV-Luc2-Hygro)
- Knock-down reagent: single siRNA against human genes, 0.8 pmol siRNA per well
- Time to read-out: 72 h
- Read-out: 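Reporter luminescence and viable-cell signal on separate replicate plates, given as percent of non-targeting control and median/MAD z-scores, plus per-cell luciferase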
- Reading the numbers: total luciferase, z-score and total luciferase, % of control: higher = more reporter protein produced; luciferase per cell, z-score: higher = more reporter output per viable cell; viable cells, % of control: higher = more viable cells
- Active means: 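An siRNA counts as active if its total luciferase robust z-score exceeds 3; genes with two or more such siRNAs out of three were retested with fresh siRNAs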
- Calls: active = raised luciferase; inactive = no rise

gene symbol	reagent no.	total luciferase, z-score	total luciferase, % of control	luciferase per cell, z-score	viable cells, % of control	Outcome
ZCCHC9	1	-1.23	57.4	-0.171	67.1	inactive
ZCCHC9	2	-1.5	52	-0.354	63.8	inactive
ZCCHC9	3	1.98	121	2.63	67.8	inactive
GINS4	1	0.0362	82.6	0.546	79.9	inactive
GINS4	2	0.714	96.1	0.972	83.1	inactive
GINS4	3	0.675	95.3	0.859	84.9	inactive
AGPAT3	1	-1.64	49.3	-0.843	68.8	inactive
AGPAT3	2	-1.41	53.9	-0.843	75.2	inactive
AGPAT3	3	1.06	103	1.42	79.2	inactive
LINC01116	1	-1.8	46.1	-1.25	71.6	inactive
LINC01116	2	-0.565	70.7	-0.877	99.5	inactive
LINC01116	3	0.456	91	0.444	90.4	inactive
RAB35	1	0.411	90.1	-0.356	111	inactive
RAB35	2	0.613	94.1	-0.127	109	inactive
RAB35	3	0.293	87.7	0.129	94.7	inactive
EML5	1	0.487	91.6	0.582	87.8	inactive
EML5	2	-0.138	79.1	-0.231	94	inactive
EML5	3	-0.9	64	-1.24	99.1	inactive
BLZF1	1	-0.0574	80.7	0.0171	89.8	inactive
BLZF1	2	-1.21	57.8	-0.148	67.2	inactive
BLZF1	3	0.0277	82.4	0.359	83.8	inactive
LHCGR	1	-1.32	55.7	-1.28	87.1	inactive
LHCGR	2	-0.901	64	-0.388	79.2	inactive
LHCGR	3	-1.04	61.2	-1.14	92.3	inactive
L3HYPDH	1	-0.047	81	-0.168	94.5	inactive
L3HYPDH	2	0.154	84.9	0.652	79.9	inactive
L3HYPDH	3	-0.113	79.6	-0.875	112	inactive
SZT2	1	-1.17	58.7	-0.893	83	inactive
SZT2	2	-0.641	69.1	-0.217	81.8	inactive
SZT2	3	0.347	88.8	0.122	96.1	inactive
SZT2	4	0.294	87.7	2.33	53.1	inactive
SZT2	5	-0.136	79.2	-0.376	97.7	inactive
SZT2	6	0.166	85.2	0.796	77.2	inactive
AEBP2	1	0.692	95.6	0.412	95.9	inactive
AEBP2	2	-1.24	57.2	-1.05	84.2	inactive
AEBP2	3	-0.379	74.3	0.603	70.9	inactive
NECAB3	1	-0.345	75	-0.259	89.8	inactive
NECAB3	2	0.0273	82.4	-0.381	102	inactive
NECAB3	3	0.587	93.6	0.32	96.1	inactive

Already shown: an excerpt of the list.
gene symbol	reagent no.	total luciferase, z-score	total luciferase, % of control	luciferase per cell, z-score	viable cells, % of control	Outcome
EML5	1	0.487	91.6	0.582	87.8	inactive
EML5	2	-0.138	79.1	-0.231	94	inactive
EML5	3	-0.9	64	-1.24	99.1	inactive
